Data as given in PubChem BioAssay AID1224828 (NIAID, 2016)
In all, the deposit lists about 17,000 reagents; this is a part drawn at random. 762 of all reagents (4.5%) count as active. 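Active calls include both raised and lowered p65 entry, mostly lowered; wells with fewer than 50 cells lack a z-score.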 Raw values are not corrected between plates. A number with no mark means an inactive call.

- Purpose: 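Find genes required for NF-kappaB p65 moving into the nucleus after LPS in mouse macrophages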 (primary screen)
- System: mouse RAW264.7 G9 macrophage reporter cells (GFP-p65, Tnf promoter-mCherry)
- Reagents: siRNA pool against mouse genes, 100 nM
- Duration: 2 days siRNA transfection, then 40 min LPS before fixation
- Conditions: LPS (Salmonella minnesota R595) at 10 ng/ml
- Measurement: 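Imaged p65 nuclear translocation ratio, normalised to the plate median, converted to robust z-scores and averaged across two replicates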
- Reading the numbers: p65 translocation robust z-score: higher = more nuclear NF-kappaB p65 after LPS than the plate median; nuclear/cytoplasmic p65 ratio: higher = more nuclear NF-kappaB p65
- Hit rule: 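Active if robust z is above 3.3 (negative regulators) or below -1.56, the Tlr4 control median (positive regulators); activity score 50 or more; control wells not called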
- Meaning of the calls: active = hit (p65 shift raised or lowered); inactive = no clear change

Eif4b (GeneID 75705) showed p65 translocation robust z-score 1.24; nuclear/cytoplasmic p65 ratio, rep 1 = 1.61; nuclear/cytoplasmic p65 ratio, rep 2 = 1.54; low cell count flag enough cells to score.
Asgr2 (GeneID 11890) gave p65 translocation robust z-score -0.13; nuclear/cytoplasmic p65 ratio, rep 1 = 1.6; nuclear/cytoplasmic p65 ratio, rep 2 = 1.59; low cell count flag enough cells to score.
Wnt9a (GeneID 216795) gave p65 translocation robust z-score -0.61; nuclear/cytoplasmic p65 ratio, rep 1 = 1.49; nuclear/cytoplasmic p65 ratio, rep 2 = 1.36; low cell count flag enough cells to score.
Against Pot1a (GeneID 101185), the entry reads p65 translocation robust z-score 0.26; nuclear/cytoplasmic p65 ratio, rep 1 = 1.5; nuclear/cytoplasmic p65 ratio, rep 2 = 1.48; low cell count flag enough cells to score.
With knock-down of Ccdc66 (GeneID 320234) the results were p65 translocation robust z-score 1.03; nuclear/cytoplasmic p65 ratio, rep 1 = 1.62; nuclear/cytoplasmic p65 ratio, rep 2 = 1.48; low cell count flag enough cells to score.
For Nrl (GeneID 18185), the values are p65 translocation robust z-score 0.05; nuclear/cytoplasmic p65 ratio, rep 1 = 1.44; nuclear/cytoplasmic p65 ratio, rep 2 = 1.44; low cell count flag enough cells to score.
After knock-down of Arhgap45 (GeneID 70719), the record shows p65 translocation robust z-score -0.61; nuclear/cytoplasmic p65 ratio, rep 1 = 1.52; nuclear/cytoplasmic p65 ratio, rep 2 = 1.53; low cell count flag enough cells to score.
For Or8b1b (GeneID 258797), the values are p65 translocation robust z-score -0.92; nuclear/cytoplasmic p65 ratio, rep 1 = 1.27; nuclear/cytoplasmic p65 ratio, rep 2 = 1.2; low cell count flag enough cells to score.
For Slc26a1 (GeneID 231583) the deposit lists p65 translocation robust z-score -0.4; nuclear/cytoplasmic p65 ratio, rep 1 = 1.27; nuclear/cytoplasmic p65 ratio, rep 2 = 1.21; low cell count flag enough cells to score.
Silencing of Szrd1 (GeneID 213491) gave: p65 translocation robust z-score 3.28; nuclear/cytoplasmic p65 ratio, rep 1 = 2.31; nuclear/cytoplasmic p65 ratio, rep 2 = 1.76; low cell count flag enough cells to score.
Depletion of Ccdc39 (GeneID 51938) came out at: p65 translocation robust z-score 0.89; nuclear/cytoplasmic p65 ratio, rep 1 = 1.57; nuclear/cytoplasmic p65 ratio, rep 2 = 1.7; low cell count flag enough cells to score.
After knock-down of Vgll4 (GeneID 232334), the screen gave p65 translocation robust z-score 0.32; nuclear/cytoplasmic p65 ratio, rep 1 = 1.48; nuclear/cytoplasmic p65 ratio, rep 2 = 1.22; low cell count flag enough cells to score.
Against Rbm15b (GeneID 109095), the entry reads nuclear/cytoplasmic p65 ratio, rep 1 = 1.27; nuclear/cytoplasmic p65 ratio, rep 2 = 1.29; low cell count flag fewer than 50 cells per well; well left out of scoring.
Against Mlf1 (GeneID 17349) the deposit lists p65 translocation robust z-score 0.86; nuclear/cytoplasmic p65 ratio, rep 1 = 1.57; nuclear/cytoplasmic p65 ratio, rep 2 = 1.44; low cell count flag enough cells to score.
Silencing of Chaf1a (GeneID 27221) gave: p65 translocation robust z-score 0.16; nuclear/cytoplasmic p65 ratio, rep 1 = 1.4; nuclear/cytoplasmic p65 ratio, rep 2 = 1.4; low cell count flag enough cells to score.
For Greb1 (GeneID 268527), the values are p65 translocation robust z-score -1.09; nuclear/cytoplasmic p65 ratio, rep 1 = 1.48; nuclear/cytoplasmic p65 ratio, rep 2 = 1.39; low cell count flag enough cells to score.
Against Wdr6 (GeneID 83669), the values are p65 translocation robust z-score -0.41; nuclear/cytoplasmic p65 ratio, rep 1 = 1.52; nuclear/cytoplasmic p65 ratio, rep 2 = 1.48; low cell count flag enough cells to score.
Dpf3 (GeneID 70127) scored nuclear/cytoplasmic p65 ratio, rep 1 = 1.39; nuclear/cytoplasmic p65 ratio, rep 2 = 1.2; low cell count flag fewer than 50 cells per well; well left out of scoring.
With knock-down of Nr2f6 (GeneID 13864), the record shows p65 translocation robust z-score -0.49; nuclear/cytoplasmic p65 ratio, rep 1 = 1.36; nuclear/cytoplasmic p65 ratio, rep 2 = 1.37; low cell count flag enough cells to score.
Against Ezh2 (GeneID 14056), the entry reads p65 translocation robust z-score -0.25; nuclear/cytoplasmic p65 ratio, rep 1 = 1.48; nuclear/cytoplasmic p65 ratio, rep 2 = 1.29; low cell count flag enough cells to score.
Silencing of Dpep2 (GeneID 319446) resulted in: p65 translocation robust z-score -0.05; nuclear/cytoplasmic p65 ratio, rep 1 = 1.47; nuclear/cytoplasmic p65 ratio, rep 2 = 1.38; low cell count flag enough cells to score.
